± gives the standard deviation of the averaged measurements. Values are relative to the signal before dosing, not to a vehicle control; the signal also falls without drug.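 Labels refer to human fibroblasts, largely primary: uterine (C12385, HUF), lung (H6013), bone (Hs27A), adrenal (HADF), skin (WS1), plus mammary HMF and breast cancer-associated Hs343T. Cancer lines are basal-like or mesenchymal-like triple-negative breast cancer. The paper counts as hits responses shifting over 3x the replicate standard deviation. The tissue of the other fibroblasts is not given here.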
System: MDAMB436
Experiment: relative JC-1 red fluorescence (viability) vs pre-drug, coculture with fibroblast (fraction); higher = more viable cancer cells
Method: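 JC-1 labelled TNBC cells cocultured 1:1 (1,500 cells each) with CellTrace Violet stained primary or stromal fibroblasts in 384-well plates in FluoroBrite medium, treated with one of 42 anticancer drugs at 0.1, 1, 10 or 100 uM. JC-1 red fluorescence (mitochondrial integrity in cancer cells only) was read by plate reader every 8 h for 72 h. Values are normalised to each well's pre-drug value. The stock of one drug was tenfold lower, so its dose labels may be too high.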

CC(=O)O[C@@]12CO[C@@H]1C[C@H](O)[C@@]1(C)C(=O)[C@H](O)C3=C(C)[C@@H](OC(=O)[C@H](O)[C@@H](NC(=O)OC(C)(C)C)c4ccccc4)C[C@@](O)([C@@H](OC(=O)c4ccccc4)[C@H]21)C3(C)C [Docetaxel]
relative JC-1 red fluorescence
Conditions | 8 h | 16 h | 24 h | 32 h | 40 h | 48 h | 56 h | 64 h | 72 h
10 µM, coculture fibroblast: C12385 | 0.782 ± 0.019 | 0.75 ± 0.021 | 0.741 ± 0.03 | 0.674 ± 0.048 | 0.646 ± 0.039 | 0.627 ± 0.058 | 0.606 ± 0.062 | 0.592 ± 0.062 | 0.595 ± 0.071
10 µM, coculture fibroblast: H6013 | 0.8399 ± 0.0081 | 0.817 ± 0.023 | 0.803 ± 0.028 | 0.798 ± 0.015 | 0.788 ± 0.019 | 0.819 ± 0.023 | 0.793 ± 0.03 | 0.795 ± 0.025 | 0.775 ± 0.025
10 µM, coculture fibroblast: H6019 | 0.7691 ± 0.0046 | 0.75 ± 0.012 | 0.752 ± 0.017 | 0.704 ± 0.0082 | 0.689 ± 0.0075 | 0.691 ± 0.01 | 0.677 ± 0.011 | 0.674 ± 0.011 | 0.667 ± 0.014
10 µM, coculture fibroblast: H6076 | 0.685 ± 0.05 | 0.636 ± 0.048 | 0.628 ± 0.047 | 0.59 ± 0.043 | 0.604 ± 0.041 | 0.59 ± 0.028 | 0.624 ± 0.034 | 0.632 ± 0.019 | 0.636 ± 0.021
10 µM, coculture fibroblast: H6231 | 0.71 ± 0.0093 | 0.613 ± 0.039 | 0.652 ± 0.012 | 0.5748 ± 0.0046 | 0.572 ± 0.0096 | 0.551 ± 0.016 | 0.548 ± 0.014 | 0.539 ± 0.012 | 0.5341 ± 0.0053
10 µM, coculture fibroblast: HADF | 0.8059 ± 0.0043 | 0.7859 ± 0.0025 | 0.765 ± 0.007 | 0.745 ± 0.01 | 0.7485 ± 0.006 | 0.776 ± 0.017 | 0.729 ± 0.013 | 0.723 ± 0.016 | 0.691 ± 0.016
10 µM, coculture fibroblast: HCFa | 0.8079 ± 0.0074 | 0.762 ± 0.012 | 0.725 ± 0.028 | 0.69 ± 0.028 | 0.66 ± 0.041 | 0.673 ± 0.05 | 0.62 ± 0.054 | 0.617 ± 0.057 | 0.571 ± 0.055
10 µM, coculture fibroblast: HCPF | 0.702 ± 0.052 | 0.664 ± 0.062 | 0.664 ± 0.066 | 0.598 ± 0.069 | 0.588 ± 0.062 | 0.557 ± 0.06 | 0.55 ± 0.059 | 0.541 ± 0.06 | 0.539 ± 0.058
10 µM, coculture fibroblast: HHSteC | 0.823 ± 0.029 | 0.808 ± 0.04 | 0.779 ± 0.039 | 0.758 ± 0.038 | 0.746 ± 0.036 | 0.761 ± 0.044 | 0.707 ± 0.038 | 0.701 ± 0.045 | 0.665 ± 0.042
10 µM, coculture fibroblast: HMF | 0.718 ± 0.078 | 0.668 ± 0.076 | 0.629 ± 0.055 | 0.582 ± 0.037 | 0.569 ± 0.027 | 0.535 ± 0.014 | 0.543 ± 0.0087 | 0.52344 ± 0.00019 | 0.5252 ± 0.00075
10 µM, coculture fibroblast: HPFa | 0.908 ± 0.046 | 0.885 ± 0.062 | 0.867 ± 0.078 | 0.819 ± 0.082 | 0.811 ± 0.064 | 0.81 ± 0.059 | 0.751 ± 0.059 | 0.731 ± 0.058 | 0.684 ± 0.064
10 µM, coculture fibroblast: HUF | 0.8335 ± 0.0045 | 0.7787 ± 0.0037 | 0.762 ± 0.015 | 0.688 ± 0.02 | 0.626 ± 0.03 | 0.605 ± 0.041 | 0.588 ± 0.049 | 0.574 ± 0.058 | 0.573 ± 0.065
10 µM, coculture fibroblast: Hs5 | 0.738 ± 0.0094 | 0.687 ± 0.019 | 0.669 ± 0.027 | 0.602 ± 0.014 | 0.587 ± 0.0085 | 0.547 ± 0.016 | 0.546 ± 0.02 | 0.521 ± 0.02 | 0.521 ± 0.017
10 µM, coculture fibroblast: Hs27A | 0.859 ± 0.013 | 0.827 ± 0.021 | 0.834 ± 0.023 | 0.838 ± 0.045 | 0.841 ± 0.055 | 0.927 ± 0.06 | 0.857 ± 0.067 | 0.868 ± 0.066 | 0.809 ± 0.064
10 µM, coculture fibroblast: Hs343T | 0.754 ± 0.016 | 0.7 ± 0.027 | 0.665 ± 0.048 | 0.61 ± 0.056 | 0.571 ± 0.057 | 0.534 ± 0.048 | 0.517 ± 0.043 | 0.506 ± 0.045 | 0.504 ± 0.042
10 µM, coculture fibroblast: WS1 | 0.78 ± 0.013 | 0.744 ± 0.016 | 0.723 ± 0.036 | 0.645 ± 0.032 | 0.609 ± 0.035 | 0.579 ± 0.044 | 0.559 ± 0.055 | 0.543 ± 0.051 | 0.532 ± 0.053
100 µM, coculture fibroblast: C12385 | 0.8496 ± 0.0052 | 0.784 ± 0.0091 | 0.7443 ± 0.0045 | 0.669 ± 0.026 | 0.611 ± 0.026 | 0.581 ± 0.027 | 0.548 ± 0.019 | 0.523 ± 0.017 | 0.512 ± 0.0099
100 µM, coculture fibroblast: H6013 | 0.8839 ± 0.0075 | 0.8006 ± 0.0018 | 0.773 ± 0.013 | 0.784 ± 0.015 | 0.7672 ± 0.006 | 0.803 ± 0.018 | 0.784 ± 0.015 | 0.787 ± 0.012 | 0.774 ± 0.02
100 µM, coculture fibroblast: H6019 | 0.804 ± 0.014 | 0.746 ± 0.0089 | 0.761 ± 0.017 | 0.712 ± 0.032 | 0.71 ± 0.024 | 0.713 ± 0.02 | 0.696 ± 0.022 | 0.692 ± 0.021 | 0.685 ± 0.024
100 µM, coculture fibroblast: H6076 | 0.7 ± 0.0031 | 0.586 ± 0.025 | 0.563 ± 0.01 | 0.543 ± 0.0096 | 0.547 ± 0.0092 | 0.544 ± 0.0057 | 0.5731 ± 0.0036 | 0.5866 ± 0.001 | 0.5963 ± 0.00089
100 µM, coculture fibroblast: H6231 | 0.717 ± 0.0088 | 0.6248 ± 0.0036 | 0.545 ± 0.08 | 0.522 ± 0.044 | 0.502 ± 0.062 | 0.485 ± 0.054 | 0.484 ± 0.065 | 0.467 ± 0.063 | 0.466 ± 0.071
100 µM, coculture fibroblast: HADF | 0.8615 ± 0.0072 | 0.7914 ± 0.0077 | 0.765 ± 0.023 | 0.754 ± 0.03 | 0.734 ± 0.044 | 0.754 ± 0.067 | 0.697 ± 0.062 | 0.691 ± 0.068 | 0.657 ± 0.073
100 µM, coculture fibroblast: HCFa | 0.874 ± 0.052 | 0.835 ± 0.1 | 0.809 ± 0.11 | 0.794 ± 0.095 | 0.764 ± 0.072 | 0.784 ± 0.054 | 0.732 ± 0.042 | 0.739 ± 0.039 | 0.68841 ± 0.00032
100 µM, coculture fibroblast: HCPF | 0.735 ± 0.021 | 0.658 ± 0.022 | 0.571 ± 0.018 | 0.525 ± 0.021 | 0.519 ± 0.011 | 0.494 ± 0.013 | 0.4861 ± 0.0035 | 0.472 ± 0.005 | 0.4622 ± 0.0038
100 µM, coculture fibroblast: HHSteC | 0.853 ± 0.011 | 0.828 ± 0.014 | 0.815 ± 0.02 | 0.799 ± 0.016 | 0.797 ± 0.036 | 0.808 ± 0.043 | 0.753 ± 0.053 | 0.758 ± 0.057 | 0.725 ± 0.062
100 µM, coculture fibroblast: HMF | 0.835 ± 0.089 | 0.711 ± 0.032 | 0.626 ± 0.032 | 0.601 ± 0.022 | 0.601 ± 0.0052 | 0.58 ± 0.016 | 0.589 ± 0.022 | 0.577 ± 0.022 | 0.573 ± 0.022
100 µM, coculture fibroblast: HPFa | 0.89229 ± 0.00064 | 0.848 ± 0.0016 | 0.7975 ± 0.0054 | 0.758 ± 0.015 | 0.734 ± 0.011 | 0.749 ± 0.018 | 0.69 ± 0.018 | 0.68 ± 0.024 | 0.638 ± 0.014
100 µM, coculture fibroblast: HUF | 0.8776 ± 0.0059 | 0.793 ± 0.0016 | 0.778 ± 0.031 | 0.716 ± 0.028 | 0.661 ± 0.046 | 0.634 ± 0.048 | 0.615 ± 0.05 | 0.608 ± 0.05 | 0.608 ± 0.051
100 µM, coculture fibroblast: Hs5 | 0.686 ± 0.0074 | 0.612 ± 0.05 | 0.574 ± 0.036 | 0.529 ± 0.044 | 0.526 ± 0.052 | 0.497 ± 0.053 | 0.514 ± 0.054 | 0.489 ± 0.055 | 0.485 ± 0.055
100 µM, coculture fibroblast: Hs27A | 0.894 ± 0.04 | 0.874 ± 0.08 | 0.857 ± 0.12 | 0.868 ± 0.14 | 0.87 ± 0.17 | 0.77 ± 0.035 | 0.736 ± 0.024 | 0.713 ± 0.014 | 0.809 ± 0.2
100 µM, coculture fibroblast: Hs343T | 0.685 ± 0.027 | 0.5482 ± 0.0028 | 0.544 ± 0.0071 | 0.514 ± 0.0062 | 0.508 ± 0.0091 | 0.485 ± 0.0061 | 0.494 ± 0.0068 | 0.491 ± 0.0066 | 0.5036 ± 0.0028
100 µM, coculture fibroblast: WS1 | 0.853 ± 0.017 | 0.776 ± 0.026 | 0.7431 ± 0.0056 | 0.666 ± 0.011 | 0.60909 ± 6.1e-05 | 0.5826 ± 0.0048 | 0.544 ± 0.016 | 0.511 ± 0.021 | 0.494 ± 0.029
